Results taken from the supplement of paper PMC9015667.
Where a name gives a salt, the structure may show the parent alone. The list shows a part of the results. Single values are uncertain, as repeats are few or missing.

Legend:
Assay in all cases: reduction in cell viability relative to untreated/vehicle; higher = more growth inhibition
Conditions in all cases: 200 nM; 72 h
M229P = tested on: M229P (parental melanoma line)
M229R = tested on: M229R (matched melanoma line resistant to BRAF inhibitors)
M238P = tested on: M238P (parental melanoma line)
M238R = tested on: M238R (matched melanoma line resistant to BRAF inhibitors)
M249P = tested on: M249P (parental melanoma line)
M249R = tested on: M249R (matched melanoma line resistant to BRAF inhibitors)
UACC62P = tested on: UACC62P (parental melanoma line)
UACC62R = tested on: UACC62R (matched melanoma line resistant to BRAF inhibitors)

| Structure (SMILES) | reduction in cell viability (M229P) [%] | reduction in cell viability (M229R) [%] | reduction in cell viability (M238P) [%] | reduction in cell viability (M238R) [%] | reduction in cell viability (M249P) [%] | reduction in cell viability (M249R) [%] | reduction in cell viability (UACC62P) [%] | reduction in cell viability (UACC62R) [%] |
| --- | --- | --- | --- | --- | --- | --- | --- | --- |
| Nc1cccc2c1CN(C1CCC(=O)NC1=O)C2=O (centres undefined) [Lenalidomide (CC-5013)] | < 0 | < 0 | < 0 | < 0 | < 0 | < 0 | < 0 | < 0 |
| CS(=O)(=O)N(Cc1ccco1)C[C@@H](O)Cn1c2ccccc2c2ccccc21 | < 0 | < 0 | < 0 | < 0 | < 0 | 11.7 | < 0 | < 0 |
| COc1ccc(CCC(=O)Nc2nc3ccc(Cl)cc3s2)cc1OC | < 0 | < 0 | < 0 | < 0 | < 0 | 0.29 | < 0 | < 0 |
| C[C@H](N=C(NC#N)Nc1cccc2ncccc12)c1ccccc1 | < 0 | < 0 | < 0 | < 0 | < 0 | < 0 | < 0 | < 0 |
| Cc1ccnc(NS(=O)(=O)c2ccc(NC(=O)Nc3ccc(S(=O)(=O)Nc4nccc(C)n4)cc3)cc2)n1 | < 0 | < 0 | < 0 | < 0 | < 0 | < 0 | < 0 | 1.55 |
| Cc1n[nH]c(C)c1Cc1sc2c(c1C(=O)N1C[C@H](O)CO1)c(=O)n(C)c(=O)n2CC(C)C | 3.5 | 30.5 | 23.3 | < 0 | < 0 | < 0 | 20.9 | 26.1 |
| COc1ccc2cc3[n+](cc2c1OC)CCc1cc2c(cc1-3)OCO2 [Berberine] | < 0 | < 0 | < 0 | < 0 | < 0 | < 0 | < 0 | < 0 |
| CCOCC(O)COc1ccc(NC(=O)CC[S+](C)C)cc1 (centres undefined) [Suplatast tosilate] | < 0 | < 0 | < 0 | < 0 | < 0 | < 0 | 0.89 | < 0 |
| O=C(CCCCCCNC(=O)c1cnc(N(c2ccccc2)c2ccccc2)nc1)NO | < 0 | < 0 | < 0 | < 0 | < 0 | < 0 | < 0 | < 0 |
| C1Cc2[nH]nc(-c3nn[nH]n3)c2C1 | < 0 | < 0 | < 0 | < 0 | < 0 | < 0 | < 0 | < 0 |
| CCCCc1oc2ccccc2c1C(=O)c1cc(I)c(OCCN(CC)CC)c(I)c1 [Amiodarone hydrochloride] | < 0 | < 0 | < 0 | < 0 | < 0 | 3.19 | 4.3 | < 0 |
| OC1CCC(Nc2ncc3nc(Nc4c(F)cc(F)cc4F)n([C@@H]4CCOC4)c3n2)CC1 (some centres undefined) | < 0 | < 0 | < 0 | < 0 | < 0 | < 0 | 2.5 | < 0 |
| O=S(=O)(O)CCSSCCS(=O)(=O)O [Mesna disulfide] | < 0 | < 0 | < 0 | < 0 | < 0 | 4.73 | 3.19 | < 0 |
| CCCCS(=N)(=O)CCC(N)C(=O)O (centres undefined) [Buthionine sulfoximine] | < 0 | < 0 | < 0 | < 0 | < 0 | < 0 | < 0 | < 0 |
| COc1ccc(Nc2cc(-c3cnc(N)nc3)nc(N3CCOCC3)n2)cn1 | < 0 | < 0 | < 0 | 10.7 | < 0 | < 0 | < 0 | < 0 |
| CN1CCN(c2ncc(-c3cc(Cl)cc(Cl)c3Cl)c(N)n2)CC1 [Sipatrigine] | < 0 | < 0 | < 0 | < 0 | < 0 | < 0 | < 0 | < 0 |
| CC(C)c1cc(-c2n[nH]c(=O)n2-c2ccc3c(ccn3C)c2)c(O)cc1O [Ganetespib (STA-9090)] | 55.5 | 62.9 | 50 | 48.3 | 8.73 | 25.7 | 54.5 | 47.5 |
| Cc1ccc(C(N)=O)cc1Nc1nccc(-c2cn(C(C)C)c3cnccc23)n1 | < 0 | < 0 | < 0 | < 0 | < 0 | < 0 | < 0 | < 0 |

Single records (already shown). Order of values: reduction in cell viability (M229P) [%]	reduction in cell viability (M229R) [%]	reduction in cell viability (M238P) [%]	reduction in cell viability (M238R) [%]	reduction in cell viability (M249P) [%]	reduction in cell viability (M249R) [%]	reduction in cell viability (UACC62P) [%]	reduction in cell viability (UACC62R) [%]
`O=S(=O)(O)CCSSCCS(=O)(=O)O` [Mesna disulfide] is listed as < 0	< 0	< 0	< 0	< 0	4.73	3.19	< 0
`Cc1ccc(C(N)=O)cc1Nc1nccc(-c2cn(C(C)C)c3cnccc23)n1` is listed as < 0	< 0	< 0	< 0	< 0	< 0	< 0	< 0
